Measured values reported in patent publication US20050054007A1.
Results are given in words; binding and its absence hold for the method and conditions named. Binding calls can cover weak binding; strength is not graded here.

Molecular target: bovine histone H1 (Boehringer Mannheim) (bovine)
Experiment: ELISA on 100 ng coated bovine histone; confirmed by a competition ELISA with histones in solution

B1: NHS76 IgG (antibody, V domains shown)
VH: QVQLQESGPGLVKPSETLSLTCAVSGYSISSGYYWGWIRQPPGKGLEWIGSIYHSGSTYYNPSLKSRVTISVDTSKNQFSLKLSSVTAADTAVYYCARGKWSKFDYWGQGTLVTVSS
VL: SSELTQDPAVSVALGQTVRITCQGDSLRSYYASWYQQKPGQAPVLVIYGKNNRPSGIPDRFSGSSSGNTASLTITGAQAEDEADYYCNSRDSSGNHVVFGGGTKLTVL
- binding: binds
